Our source for the binding values is publication PMC9795356.

Chains of the proteins cited; added tags and fusions are not shown.
UniProt Q9P1Y6: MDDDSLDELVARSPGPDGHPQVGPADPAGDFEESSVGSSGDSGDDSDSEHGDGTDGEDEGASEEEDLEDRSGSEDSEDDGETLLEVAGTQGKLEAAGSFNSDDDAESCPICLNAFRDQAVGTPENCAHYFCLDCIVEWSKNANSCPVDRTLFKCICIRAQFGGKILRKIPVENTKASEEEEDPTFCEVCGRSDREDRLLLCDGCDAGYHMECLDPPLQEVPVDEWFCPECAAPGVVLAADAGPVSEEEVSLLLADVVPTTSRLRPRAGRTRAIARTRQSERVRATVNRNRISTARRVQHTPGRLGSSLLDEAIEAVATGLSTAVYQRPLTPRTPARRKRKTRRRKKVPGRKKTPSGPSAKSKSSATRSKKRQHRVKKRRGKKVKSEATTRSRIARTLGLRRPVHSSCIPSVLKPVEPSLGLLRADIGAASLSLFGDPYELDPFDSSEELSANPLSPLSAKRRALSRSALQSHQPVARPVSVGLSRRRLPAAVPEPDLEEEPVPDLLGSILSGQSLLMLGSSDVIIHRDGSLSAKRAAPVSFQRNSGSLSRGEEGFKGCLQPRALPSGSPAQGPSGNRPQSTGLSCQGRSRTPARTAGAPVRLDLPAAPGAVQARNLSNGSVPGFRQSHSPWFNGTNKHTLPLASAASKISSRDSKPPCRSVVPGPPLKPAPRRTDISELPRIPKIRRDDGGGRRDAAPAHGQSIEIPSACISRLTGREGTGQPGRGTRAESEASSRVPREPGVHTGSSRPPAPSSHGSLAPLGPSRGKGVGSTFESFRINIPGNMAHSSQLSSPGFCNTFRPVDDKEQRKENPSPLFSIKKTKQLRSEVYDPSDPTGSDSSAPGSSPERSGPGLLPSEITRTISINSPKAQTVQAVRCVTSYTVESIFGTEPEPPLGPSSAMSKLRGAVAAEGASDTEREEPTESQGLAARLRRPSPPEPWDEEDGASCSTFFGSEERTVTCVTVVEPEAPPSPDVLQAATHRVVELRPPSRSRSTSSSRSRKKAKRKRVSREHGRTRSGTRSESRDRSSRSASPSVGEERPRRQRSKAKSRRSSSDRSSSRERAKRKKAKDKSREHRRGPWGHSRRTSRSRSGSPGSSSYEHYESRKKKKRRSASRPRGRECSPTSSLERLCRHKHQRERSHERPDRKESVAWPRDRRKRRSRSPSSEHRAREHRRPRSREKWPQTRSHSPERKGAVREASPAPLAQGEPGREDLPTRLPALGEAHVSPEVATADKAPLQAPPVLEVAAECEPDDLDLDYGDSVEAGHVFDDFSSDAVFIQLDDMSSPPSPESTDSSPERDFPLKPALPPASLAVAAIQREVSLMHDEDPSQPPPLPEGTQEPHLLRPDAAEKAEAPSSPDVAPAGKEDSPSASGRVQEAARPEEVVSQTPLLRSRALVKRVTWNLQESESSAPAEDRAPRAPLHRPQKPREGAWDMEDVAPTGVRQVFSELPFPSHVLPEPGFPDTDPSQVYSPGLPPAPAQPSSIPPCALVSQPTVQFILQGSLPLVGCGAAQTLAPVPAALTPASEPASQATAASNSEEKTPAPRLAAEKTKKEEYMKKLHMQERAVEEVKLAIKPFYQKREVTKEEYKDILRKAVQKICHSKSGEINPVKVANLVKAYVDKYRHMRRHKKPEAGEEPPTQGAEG
UniProt O94762: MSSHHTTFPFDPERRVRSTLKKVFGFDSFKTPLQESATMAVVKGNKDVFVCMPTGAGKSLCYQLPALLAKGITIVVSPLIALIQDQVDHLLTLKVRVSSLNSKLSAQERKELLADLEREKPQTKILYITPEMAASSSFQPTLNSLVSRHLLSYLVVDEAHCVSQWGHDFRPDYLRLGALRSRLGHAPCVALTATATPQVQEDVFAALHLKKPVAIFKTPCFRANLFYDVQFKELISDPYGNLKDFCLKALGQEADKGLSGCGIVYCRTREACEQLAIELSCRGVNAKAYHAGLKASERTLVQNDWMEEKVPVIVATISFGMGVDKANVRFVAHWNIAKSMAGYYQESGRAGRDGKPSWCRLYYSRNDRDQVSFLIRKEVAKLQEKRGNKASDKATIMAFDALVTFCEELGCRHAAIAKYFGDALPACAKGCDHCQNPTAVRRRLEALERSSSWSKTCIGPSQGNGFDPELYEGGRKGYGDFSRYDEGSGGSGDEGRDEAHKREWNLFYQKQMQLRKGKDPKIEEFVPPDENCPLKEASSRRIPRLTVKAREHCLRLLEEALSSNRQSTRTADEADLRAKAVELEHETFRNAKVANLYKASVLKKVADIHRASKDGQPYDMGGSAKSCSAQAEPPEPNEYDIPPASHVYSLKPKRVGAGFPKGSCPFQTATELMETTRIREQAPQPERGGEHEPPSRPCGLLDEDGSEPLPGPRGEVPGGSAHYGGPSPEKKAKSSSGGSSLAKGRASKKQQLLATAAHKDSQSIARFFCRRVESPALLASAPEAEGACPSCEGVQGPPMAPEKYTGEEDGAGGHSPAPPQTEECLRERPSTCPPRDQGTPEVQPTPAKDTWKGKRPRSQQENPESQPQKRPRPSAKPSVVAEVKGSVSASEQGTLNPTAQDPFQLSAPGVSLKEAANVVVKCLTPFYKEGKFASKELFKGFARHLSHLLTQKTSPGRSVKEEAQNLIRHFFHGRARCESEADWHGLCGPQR
UniProt Q5VT52: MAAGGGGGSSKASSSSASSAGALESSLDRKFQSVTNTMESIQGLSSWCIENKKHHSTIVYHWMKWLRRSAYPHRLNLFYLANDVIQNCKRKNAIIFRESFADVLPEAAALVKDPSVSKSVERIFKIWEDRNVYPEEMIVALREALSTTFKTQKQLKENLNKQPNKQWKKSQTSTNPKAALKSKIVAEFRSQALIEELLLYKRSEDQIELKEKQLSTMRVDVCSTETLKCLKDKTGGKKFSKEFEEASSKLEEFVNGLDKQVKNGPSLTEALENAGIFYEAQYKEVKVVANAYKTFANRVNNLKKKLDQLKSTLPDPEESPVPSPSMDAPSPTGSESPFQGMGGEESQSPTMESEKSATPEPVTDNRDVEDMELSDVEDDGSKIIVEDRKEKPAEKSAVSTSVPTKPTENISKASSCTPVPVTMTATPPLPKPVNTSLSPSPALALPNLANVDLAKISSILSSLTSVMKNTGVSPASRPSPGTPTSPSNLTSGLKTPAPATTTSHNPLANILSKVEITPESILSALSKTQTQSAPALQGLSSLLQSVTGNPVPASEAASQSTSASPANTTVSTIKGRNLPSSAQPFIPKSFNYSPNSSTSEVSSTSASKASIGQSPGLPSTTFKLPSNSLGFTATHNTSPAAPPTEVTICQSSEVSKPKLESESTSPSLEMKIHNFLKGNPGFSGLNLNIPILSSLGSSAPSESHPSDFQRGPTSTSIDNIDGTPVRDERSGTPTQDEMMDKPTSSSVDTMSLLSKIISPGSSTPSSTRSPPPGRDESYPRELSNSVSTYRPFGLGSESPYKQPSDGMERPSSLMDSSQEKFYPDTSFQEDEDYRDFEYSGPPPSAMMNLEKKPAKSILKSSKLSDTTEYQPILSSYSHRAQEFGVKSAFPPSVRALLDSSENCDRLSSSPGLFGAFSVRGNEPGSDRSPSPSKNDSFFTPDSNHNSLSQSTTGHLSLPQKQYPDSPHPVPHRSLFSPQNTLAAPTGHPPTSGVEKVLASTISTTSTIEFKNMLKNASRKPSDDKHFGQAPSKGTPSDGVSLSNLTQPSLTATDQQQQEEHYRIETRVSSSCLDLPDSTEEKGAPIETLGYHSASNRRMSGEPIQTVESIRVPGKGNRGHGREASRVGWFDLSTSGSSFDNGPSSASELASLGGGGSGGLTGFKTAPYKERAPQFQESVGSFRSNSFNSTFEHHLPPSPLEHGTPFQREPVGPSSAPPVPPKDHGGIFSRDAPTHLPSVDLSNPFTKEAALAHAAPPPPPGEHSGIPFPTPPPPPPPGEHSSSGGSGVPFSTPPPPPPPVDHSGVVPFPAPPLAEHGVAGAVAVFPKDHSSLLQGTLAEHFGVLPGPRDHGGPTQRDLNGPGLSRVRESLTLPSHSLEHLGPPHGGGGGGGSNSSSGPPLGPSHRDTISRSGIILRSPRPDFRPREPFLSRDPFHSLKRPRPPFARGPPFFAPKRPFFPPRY
UniProt Q8IXW5: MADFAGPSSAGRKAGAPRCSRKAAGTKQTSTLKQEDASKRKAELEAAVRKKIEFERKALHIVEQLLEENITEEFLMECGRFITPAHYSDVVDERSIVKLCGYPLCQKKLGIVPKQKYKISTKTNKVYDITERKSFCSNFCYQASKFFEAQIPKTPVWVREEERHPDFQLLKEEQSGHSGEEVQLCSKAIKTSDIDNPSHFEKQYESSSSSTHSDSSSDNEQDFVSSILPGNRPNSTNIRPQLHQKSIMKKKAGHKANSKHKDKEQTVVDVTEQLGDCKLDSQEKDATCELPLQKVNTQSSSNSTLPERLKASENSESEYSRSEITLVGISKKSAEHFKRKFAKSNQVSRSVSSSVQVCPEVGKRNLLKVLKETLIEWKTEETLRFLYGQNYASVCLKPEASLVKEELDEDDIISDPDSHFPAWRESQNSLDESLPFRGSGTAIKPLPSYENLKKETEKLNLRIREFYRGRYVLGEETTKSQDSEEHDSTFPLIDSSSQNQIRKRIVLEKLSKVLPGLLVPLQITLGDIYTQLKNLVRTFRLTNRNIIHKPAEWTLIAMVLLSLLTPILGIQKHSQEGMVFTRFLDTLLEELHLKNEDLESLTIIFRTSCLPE

The target of one test is T1, FLAG-SCAF4 (human) (UniProt O95104).
T1 sequence: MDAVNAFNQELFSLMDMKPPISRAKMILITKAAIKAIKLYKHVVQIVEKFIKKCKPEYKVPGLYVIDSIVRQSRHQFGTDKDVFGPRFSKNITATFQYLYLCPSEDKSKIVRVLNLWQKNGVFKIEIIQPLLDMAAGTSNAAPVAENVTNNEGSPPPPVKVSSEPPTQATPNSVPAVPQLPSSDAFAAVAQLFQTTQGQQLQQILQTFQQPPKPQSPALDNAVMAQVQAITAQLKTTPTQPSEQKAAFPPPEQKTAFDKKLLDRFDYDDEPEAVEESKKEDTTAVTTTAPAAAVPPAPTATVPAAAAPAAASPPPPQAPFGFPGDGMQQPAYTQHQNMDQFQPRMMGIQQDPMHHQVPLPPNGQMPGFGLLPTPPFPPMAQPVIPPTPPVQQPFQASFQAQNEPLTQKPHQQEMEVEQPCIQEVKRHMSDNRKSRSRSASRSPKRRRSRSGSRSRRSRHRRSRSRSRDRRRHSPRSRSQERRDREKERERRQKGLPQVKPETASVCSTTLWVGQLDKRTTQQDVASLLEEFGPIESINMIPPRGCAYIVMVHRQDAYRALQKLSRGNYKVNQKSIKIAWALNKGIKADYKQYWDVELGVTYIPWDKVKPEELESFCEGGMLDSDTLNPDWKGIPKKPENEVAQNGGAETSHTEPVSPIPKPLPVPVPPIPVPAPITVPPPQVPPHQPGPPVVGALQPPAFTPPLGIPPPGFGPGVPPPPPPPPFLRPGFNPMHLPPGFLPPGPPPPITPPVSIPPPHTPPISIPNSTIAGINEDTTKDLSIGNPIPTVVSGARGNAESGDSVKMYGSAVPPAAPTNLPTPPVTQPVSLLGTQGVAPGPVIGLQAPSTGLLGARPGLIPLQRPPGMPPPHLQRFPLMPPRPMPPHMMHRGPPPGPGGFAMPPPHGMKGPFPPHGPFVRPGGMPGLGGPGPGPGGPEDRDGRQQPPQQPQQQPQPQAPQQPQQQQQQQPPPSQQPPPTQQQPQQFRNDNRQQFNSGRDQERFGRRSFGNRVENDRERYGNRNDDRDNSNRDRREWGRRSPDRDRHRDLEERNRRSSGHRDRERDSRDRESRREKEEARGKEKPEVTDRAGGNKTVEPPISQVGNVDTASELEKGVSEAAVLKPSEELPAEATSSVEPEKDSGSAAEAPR
Nature of the test: affinity purification with mass spectrometry; SCAF4 or SCAF8 ELCAP-MS: double IP (FLAG IP, 3xFLAG peptide elution, then RNAPII 4H8 IP) from Benzonase-treated chromatin extract; label-free, two biological replicates, triplicate injection; control: parental HEK293 cells.

A further test deals with T2, FLAG-SCAF8 (human) (UniProt Q9UPN6).
T2 sequence: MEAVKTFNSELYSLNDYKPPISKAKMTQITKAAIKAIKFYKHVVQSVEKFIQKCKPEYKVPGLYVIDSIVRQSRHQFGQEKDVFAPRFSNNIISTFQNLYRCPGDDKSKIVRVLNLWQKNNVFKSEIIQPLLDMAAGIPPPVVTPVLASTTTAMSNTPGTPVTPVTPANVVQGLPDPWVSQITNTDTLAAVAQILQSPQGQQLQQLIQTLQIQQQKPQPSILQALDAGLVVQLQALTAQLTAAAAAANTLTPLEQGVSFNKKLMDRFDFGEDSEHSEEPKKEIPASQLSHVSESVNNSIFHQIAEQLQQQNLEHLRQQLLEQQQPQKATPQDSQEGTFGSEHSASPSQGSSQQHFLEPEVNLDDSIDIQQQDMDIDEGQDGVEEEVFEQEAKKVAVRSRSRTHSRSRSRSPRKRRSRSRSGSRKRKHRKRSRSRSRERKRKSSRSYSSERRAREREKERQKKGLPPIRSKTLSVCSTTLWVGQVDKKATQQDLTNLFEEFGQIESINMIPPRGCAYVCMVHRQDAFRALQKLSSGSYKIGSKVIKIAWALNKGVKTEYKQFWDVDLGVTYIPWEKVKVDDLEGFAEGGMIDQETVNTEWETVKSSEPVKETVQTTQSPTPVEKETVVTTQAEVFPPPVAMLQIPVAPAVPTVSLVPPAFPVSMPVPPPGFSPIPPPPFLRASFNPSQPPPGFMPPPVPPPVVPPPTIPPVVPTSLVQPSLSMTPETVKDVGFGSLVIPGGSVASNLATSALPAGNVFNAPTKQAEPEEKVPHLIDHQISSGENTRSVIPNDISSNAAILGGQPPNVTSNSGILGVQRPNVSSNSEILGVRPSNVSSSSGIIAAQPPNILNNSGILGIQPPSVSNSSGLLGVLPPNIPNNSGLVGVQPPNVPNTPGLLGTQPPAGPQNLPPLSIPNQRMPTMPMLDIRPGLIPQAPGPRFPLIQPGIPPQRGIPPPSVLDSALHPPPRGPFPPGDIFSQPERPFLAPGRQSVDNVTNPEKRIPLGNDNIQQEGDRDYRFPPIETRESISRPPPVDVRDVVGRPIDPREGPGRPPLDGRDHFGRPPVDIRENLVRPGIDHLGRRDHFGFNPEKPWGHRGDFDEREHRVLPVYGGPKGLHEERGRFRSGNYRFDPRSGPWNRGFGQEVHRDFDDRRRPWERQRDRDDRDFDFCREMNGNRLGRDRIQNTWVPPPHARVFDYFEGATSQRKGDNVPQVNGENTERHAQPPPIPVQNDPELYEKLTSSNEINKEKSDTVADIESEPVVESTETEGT
Described as above.

These are yes or no findings as the source states them, for the method shown. In cells and extracts the contact can be indirect. Here binding means that the protein was enriched with, or labelled near, the bait; the list need not be complete. Sequences can lack the tags named with a protein.

For PHRF1 (from UniProt Q9P1Y6 1-1649), the binding result in the test with FLAG-SCAF4 (human) and with FLAG-SCAF8 (human) was “binds” in each case.

In the case of RECQL5 (from UniProt O94762 1-991), the binding entry in the test with FLAG-SCAF4 (human) and in the test with FLAG-SCAF8 (human) was “binds” in each case.

Regarding RPRD2 (from UniProt Q5VT52 1-1461), the binding result in the test with FLAG-SCAF4 (human) and with FLAG-SCAF8 (human) was “binds” each time.

For the molecule RPAP2 (from UniProt Q8IXW5 1-612), the binding result with FLAG-SCAF4 (human) and with FLAG-SCAF8 (human) was “binds” throughout.

B1: SCAF11 (protein, UniProt Q99590 1-1463)
chain: MKKKTVCTLNMGDKKYEDMEGEENGDNTISTGLLYSEADRCPICLNCLLEKEVGFPESCNHVFCMTCILKWAETLASCPIDRKPFQAVFKFSALEGYVKVQVKKQLRETKDKKNENSFEKQVSCHENSKSCIRRKAIVREDLLSAKVCDLKWIHRNSLYSETGGKKNAAIKINKPQRSNWSTNQCFRNFFSNMFSSVSHSGESSFTYRAYCTEFIEASEISALIRQKRHELELSWFPDTLPGIGRIGFIPWNVETEVLPLISSVLPRTIFPTSTISFEHFGTSCKGYALAHTQEGEEKKQTSGTSNTRGSRRKPAMTTPTRRSTRNTRAETASQSQRSPISDNSGCDAPGNSNPSLSVPSSAESEKQTRQAPKRKSVRRGRKPPLLKKKLRSSVAAPEKSSSNDSVDEETAESDTSPVLEKEHQPDVDSSNICTVQTHVENQSANCLKSCNEQIEESEKHTANYDTEERVGSSSSESCAQDLPVLVGEEGEVKKLENTGIEANVLCLESEISENILEKGGDPLEKQDQISGLSQSEVKTDVCTVHLPNDFPTCLTSESKVYQPVSCPLSDLSENVESVVNEEKITESSLVEITEHKDFTLKTEELIESPKLESSEGEIIQTVDRQSVKSPEVQLLGHVETEDVEIIATCDTFGNEDFNNIQDSENNLLKNNLLNTKLEKSLEEKNESLTEHPRSTELPKTHIEQIQKHFSEDNNEMIPMECDSFCSDQNESEVEPSVNADLKQMNENSVTHCSENNMPSSDLADEKVETVSQPSESPKDTIDKTKKPRTRRSRFHSPSTTWSPNKDTPQEKKRPQSPSPRRETGKESRKSQSPSPKNESARGRKKSRSQSPKKDIARERRQSQSRSPKRDTTRESRRSESLSPRRETSRENKRSQPRVKDSSPGEKSRSQSRERESDRDGQRRERERRTRKWSRSRSHSRSPSRCRTKSKSSSFGRIDRDSYSPRWKGRWANDGWRCPRGNDRYRKNDPEKQNENTRKEKNDIHLDADDPNSADKHRNDCPNWITEKINSGPDPRTRNPEKLKESHWEENRNENSGNSWNKNFGSGWVSNRGRGRGNRGRGTYRSSFAYKDQNENRWQNRKPLSGNSNSSGSESFKFVEQQSYKRKSEQEFSFDTPADRSGWTSASSWAVRKTLPADVQNYYSRRGRNSSGPQSGWMKQEEETSGQDSSLKDQTNQQVDGSQLPINMMQPQMNVMQQQMNAQHQPMNIFPYPVGVHAPLMNIQRNPFNIHPQLPLHLHTGVPLMQVATPTSVSQGLPPPPPPPPPSQQVNYIASQPDGKQLQGIPSSSHVSNNMSTPVLPAPTAAPGNTGMVQGPSSGNTSSSSHSKASNAAVKLAESKVSVAVEASADSSKTDKKLQIQEKAAQEVKLAIKPFYQNKDITKEEYKEIVRKAVDKVCHSKSGEVNSTKVANLVKAYVDKYKYSRKGSQKKTLEEPVSTEKNIG
For the molecule B1, the binding result in the test with FLAG-SCAF8 (human) is “binds”.

B2: RPRD1B (protein, UniProt Q9NQG5 1-326)
chain: MSSFSESALEKKLSELSNSQQSVQTLSLWLIHHRKHAGPIVSVWHRELRKAKSNRKLTFLYLANDVIQNSKRKGPEFTREFESVLVDAFSHVAREADEGCKKPLERLLNIWQERSVYGGEFIQQLKLSMEDSKSPPPKATEEKKSLKRTFQQIQEEEDDDYPGSYSPQDPSAGPLLTEELIKALQDLENAASGDATVRQKIASLPQEVQDVSLLEKITDKEAAERLSKTVDEACLLLAEYNGRLAAELEDRRQLARMLVEYTQNQKDVLSEKEKKLEEYKQKLARVTQVRKELKSHIQSLPDLSLLPNVTGGLAPLPSAGDLFSTD
Turning to B2, the binding result with FLAG-SCAF4 (human) and with FLAG-SCAF8 (human) was “binds” throughout.

B3: SCAF1 (protein, UniProt Q9H7N4 1-1312)
chain: MEEEDESRGKTEESGEDRGDGPPDRDPTLSPSAFILRAIQQAVGSSLQGDLPNDKDGSRCHGLRWRRCRSPRSEPRSQESGGTDTATVLDMATDSFLAGLVSVLDPPDTWVPSRLDLRPGESEDMLELVAEVRIGDRDPIPLPVPSLLPRLRAWRTGKTVSPQSNSSRPTCARHLTLGTGDGGPAPPPAPSSASSSPSPSPSSSSPSPPPPPPPPAPPAPPAPRFDIYDPFHPTDEAYSPPPAPEQKYDPFEPTGSNPSSSAGTPSPEEEEEEEEEEEEEEEDEEEEEGLSQSISRISETLAGIYDDNSLSQDFPGDESPRPDAQPTQPTPAPGTPPQVDSTRADGAMRRRVFVVGTEAEACREGKVSVEVVTAGGAALPPPLLPPGDSEIEEGEIVQPEEEPRLALSLFRPGGRAARPTPAASATPTAQPLPQPPAPRAPEGDDFLSLHAESDGEGALQVDLGEPAPAPPAADSRWGGLDLRRKILTQRRERYRQRSPSPAPAPAPAAAAGPPTRKKSRRERKRSGEAKEAASSSSGTQPAPPAPASPWDSKKHRSRDRKPGSHASSSARRRSRSRSRSRSTRRRSRSTDRRRGGSRRSRSREKRRRRRRSASPPPATSSSSSSRRERHRGKHRDGGGSKKKKKRSRSRGEKRSGDGSEKAPAPAPPPSGSTSCGDRDSRRRGAVPPSIQDLTDHDLFAIKRTITVGRLDKSDPRGPSPAPASSPKREVLYDSEGLSGEERGGKSSQKDRRRSGAASSSSSSREKGSRRKALDGGDRDRDRDRDRDRDRSSKKARPPKESAPSSGPPPKPPVSSGSGSSSSSSSCSSRKVKLQSKVAVLIREGVSSTTPAKDAASAGLGSIGVKFSRDRESRSPFLKPDERAPTEMAKAAPGSTKPKKTKVKAKAGAKKTKGTKGKTKPSKTRKKVRSGGGSGGSGGQVSLKKSKADSCSQAAGTKGAEETSWSGEERAAKVPSTPPPKAAPPPPALTPDSQTVDSSCKTPEVSFLPEEATEEAGVRGGAEEEEEEEEEEEEEEEEEEQQPATTTATSTAAAAPSTAPSAGSTAGDSGAEDGPASRVSQLPTLPPPMPWNLPAGVDCTTSGVLALTALLFKMEEANLASRAKAQELIQATNQILSHRKPPSSLGMTPAPVPTSLGLPPGPSSYLLPGSLPLGGCGSTPPTPTGLAATSDKREGSSSSEGRGDTDKYLKKLHTQERAVEEVKLAIKPYYQKKDITKEEYKDILRKAVHKICHSKSGEINPVKVSNLVRAYVQRYRYFRKHGRKPGDPPGPPRPPKEPGPPDKGGPGLPLPPL
Consider B3, for which the binding entry with FLAG-SCAF4 (human) and with FLAG-SCAF8 (human) was “binds” throughout.
